Measured values reported in PubChem BioAssay AID493014 (National Center for Advancing Translational Sciences (NCATS), 2011).
This is one part of the list. Shown are side measurements of this screen, not its main read-out; they come without a call. Compounds called inactive in the main read-out are mostly missing here. Potencies come from curve fits of mixed quality, noted in brackets.

Experiment: qHTS Assay to Find Inhibitors of Chronic Active B-Cell Receptor Signaling
Conditions: ABC-DLBCL IkBa-CBG/CBR reporter, luminescence ratio (green luciferase fused to IkBa over red control in TMD8 lymphoma cells), 4 h
How it was run: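 Concentration-response series (up to 46 uM) were applied to TMD8 dual-reporter cells for 4 h at 37C with doxycycline. Green/red ratio, after filter-overlap correction, defined %Activity; red signal alone was normalised to basal cells and zero luminescence.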

[1] = measured here: CBR red luminescence, cell number
[2] = measured here: IkBa-CBG green luminescence

In the case of Cc1ccc(NC2=C(Cl)C(=O)OC2OC(=O)c2ccccc2C)cc1 (stereo unspecified), the AC50 [1] is reported as 25.1 µM [falling, single point].
With O=C(O)c1ccc(N=Nc2c(O)ccc3ncccc23)cc1 the AC50 [1] was 0.447 µM [falling, full curve].
In the case of O=C(COc1ccc(Cl)cc1Cl)N1CCCCCC1, the AC50 [1] is reported as 6.31 µM [rising, partial curve].
In the case of Cc1nc2ccccc2cc1C(=O)N/N=C/c1ccc([N+](=O)[O-])cc1, the AC50 [1] is reported as 3.26 µM [rising, full curve, poor fit].
With CCC1=C(OC(=O)N(CC)CC)N2C(=O)OC(=NCCc3c[nH]c4ccccc34)[C@]2(Cc2ccccc2)[C@H]2C1=CC[C@H]1C(=O)N(C)C(=O)[C@H]12 the AC50 [1] was 11.2 µM [falling, single point].
For C=C(C)C(=O)N1CC2(CC(c3cccc(NC(=O)/C=C\C=C/C)c3)=NO2)C[C@H]1C(N)=O (stereo partly specified), the AC50 [1] was 20 µM [falling, partial curve, poor fit].
In the case of CCN(C(=O)CN1C(=O)c2ccc([N+](=O)[O-])cc2C1=O)C1CCCCC1, the AC50 [1] is reported as 14.1 µM [rising, single point].
With CC(Cc1c[nH]c2ccccc12)NC(=O)C1CCCNC1=O (stereo unspecified) the AC50 [1] was 17.8 µM [falling, partial curve].
With CCN(CC(=O)Nc1ccc(NC(C)=O)cc1)C(=O)/C=C/c1cn(Cc2ccccc2)nc1-c1cccnc1 the AC50 [1] was 0.116 µM [rising, full curve, poor fit].
In the case of COc1ccc(CCc2nc(-c3cccs3)no2)cc1, the AC50 [1] is reported as 7.94 µM [rising, partial curve].
In the case of Cc1cccc(NC(=O)CSc2nc(=O)n(Cc3cccnc3)c3c2CCC3)c1, the AC50 [1] is reported as 22.4 µM [falling, single point].
For CC12CCC(=O)N1C(C(=O)Nc1nc(-c3ccc(F)c(F)c3)cs1)CS2 (stereo unspecified), the AC50 [1] was 7.31 µM [falling, partial curve].
In the case of Cc1cc(=O)oc2cc(NC(=S)NNC(=O)c3c(Cl)cnn3C)ccc12, the AC50 [1] is reported as 2.24 µM [rising, full curve].
For COc1ccc2oc(C(=O)OCC(=O)N3CCN(S(=O)(=O)c4ccc(C)cc4)CC3)c(C)c2c1, the AC50 [1] was 6.31 µM [rising, partial curve, poor fit].
With CCOc1ccccc1OCCCC(=O)ON=C(N)c1ccccc1 the AC50 [1] was 8.2 µM [rising, partial curve].
For O=C(CCCOc1ccccc1)Nc1cccc(C(=O)O)c1, the AC50 [1] was 11.6 µM [falling, partial curve].
In the case of C=CCNC(=S)N/N=C/c1cn(C)c2ccccc12, the AC50 [2] is reported as 11.2 µM [falling, partial curve].
With CC(=O)N(Nc1ccccc1)c1ccccc1 the AC50 [1] was 35.5 µM [rising, partial curve, poor fit].
With CC1=Nc2ccccc2N=C(NC(=O)c2ccccc2)C1c1ccc(Cl)cc1 (stereo unspecified) the AC50 [1] was 3.55 µM [rising, single point].
For COc1cc(NC(=O)C/C(C)=N/NC(=O)C(OC)c2ccccc2)c(OC)cc1Cl (stereo unspecified), the AC50 [1] was 29.1 µM [falling, single point].
For Cc1cc(C)nc(SCc2nnc(SCC(=O)N3CCCc4ccccc43)o2)n1, the AC50 [1] was 0.562 µM [rising, partial curve, poor fit].
With N#C[C@H]1[C@H](c2ccccc2)[C@](C#N)(C(=O)c2ccccc2)[C@@H]2C=Cc3ccccc3N21 the AC50 [1] was 6.31 µM [falling, single point].
With Cc1nn(C)cc1/C=C/C(=O)c1ccc(O)cc1 the AC50 [1] was 23.1 µM [falling, partial curve, poor fit].
With CCc1sc(C(=O)Nc2ccc(N3CCOCC3)cc2)cc1C the AC50 [1] was 1.84 µM [rising, partial curve].
In the case of CCOc1ccc(-c2noc(-c3cccnc3)n2)cc1OC, the AC50 [1] is reported as 3.55 µM [rising, partial curve, poor fit].
With O=C(CSc1nnc2c(n1)[nH]c1ccccc12)Nc1cccc(S(=O)(=O)N2CCOCC2)c1 the AC50 [1] was 6.31 µM [falling, single point].
For C/C(CCc1oc2ccccc2c1-c1ccc(C)o1)=N/O, the AC50 [1] was 25.1 µM [falling, single point].
With Cc1ccc(C(C)C)c(OCc2nnc3n2CCCCC3)c1 the AC50 [1] was 0.146 µM [falling, full curve, poor fit].
With COc1ccc(C2=Nn3c(nnc3-c3ccc(OC)cc3)SC2)cc1 the AC50 [2] was 5.17 µM [falling, partial curve].
For COc1ccc(NC(=O)c2ccco2)cc1NC(=O)c1ccco1, the AC50 [1] was 1.41 µM [rising, partial curve, poor fit].
In the case of Cc1cccc(NC(=O)CSc2ncnc3sc(C)cc23)c1, the AC50 [1] is reported as 2.51 µM [falling, partial curve].
For COc1cc(O)c2c(=O)c3c(O)ccc(O)c3oc2c1, the AC50 [1] was 6.51 µM [rising, partial curve].
For CCOC(=O)c1nnsc1NC(C)=O, the AC50 [1] was 23.1 µM [rising, single point].
For COC(=O)Nc1nnc(SCc2ccc(C)cc2)s1, the AC50 [1] was 8.2 µM [rising, partial curve, poor fit].
For CC(=O)c1cccc(NC(=O)N2CCCC2C(=O)NCc2ccc3c(c2)OCO3)c1 (stereo unspecified), the AC50 [1] was 20 µM [rising, partial curve, poor fit].
With Cc1ccc2nc(NCc3ccc(F)cc3)c3nncn3c2c1 the AC50 [1] was 0.501 µM [rising, full curve, poor fit].
With Cc1cc(C(N)=O)nn1-c1c(Cl)cc(Cl)cc1Cl the AC50 [2] was 14.1 µM [falling, partial curve, poor fit].
In the case of COc1cc(/C=C(\C#N)C(=O)Nc2cccc(C(=O)O)c2)ccc1OCc1ccc(F)cc1, the AC50 [1] is reported as 11.2 µM [falling, partial curve].
In the case of COc1ccc(NC(=O)c2cc(C(C)C)on2)c(OC)c1, the AC50 [1] is reported as 0.326 µM [rising, full curve, poor fit].
In the case of O=C(OCC1OC(n2ccc(=O)[nH]c2=O)C(O)C1OC(=O)c1ccccc1)c1ccccc1 (stereo unspecified), the AC50 [1] is reported as 4.11 µM [falling, single point].
With Cc1cc(C)c(NC(=O)CSc2nnc(CNC(=O)c3ccccc3F)o2)c(C)c1 the AC50 [1] was 35.5 µM [rising, single point].
